Laboratory results published in patent US20240325555A1.
Results are given in words; binding and its absence hold for the method and conditions named. Some binding calls cover weakened binding; strength is not graded here.

Protein sequences, listed by entry. Tags and fused reporters are not part of them. Residues count along the entry.
UniProt Q13433, residues 29-755: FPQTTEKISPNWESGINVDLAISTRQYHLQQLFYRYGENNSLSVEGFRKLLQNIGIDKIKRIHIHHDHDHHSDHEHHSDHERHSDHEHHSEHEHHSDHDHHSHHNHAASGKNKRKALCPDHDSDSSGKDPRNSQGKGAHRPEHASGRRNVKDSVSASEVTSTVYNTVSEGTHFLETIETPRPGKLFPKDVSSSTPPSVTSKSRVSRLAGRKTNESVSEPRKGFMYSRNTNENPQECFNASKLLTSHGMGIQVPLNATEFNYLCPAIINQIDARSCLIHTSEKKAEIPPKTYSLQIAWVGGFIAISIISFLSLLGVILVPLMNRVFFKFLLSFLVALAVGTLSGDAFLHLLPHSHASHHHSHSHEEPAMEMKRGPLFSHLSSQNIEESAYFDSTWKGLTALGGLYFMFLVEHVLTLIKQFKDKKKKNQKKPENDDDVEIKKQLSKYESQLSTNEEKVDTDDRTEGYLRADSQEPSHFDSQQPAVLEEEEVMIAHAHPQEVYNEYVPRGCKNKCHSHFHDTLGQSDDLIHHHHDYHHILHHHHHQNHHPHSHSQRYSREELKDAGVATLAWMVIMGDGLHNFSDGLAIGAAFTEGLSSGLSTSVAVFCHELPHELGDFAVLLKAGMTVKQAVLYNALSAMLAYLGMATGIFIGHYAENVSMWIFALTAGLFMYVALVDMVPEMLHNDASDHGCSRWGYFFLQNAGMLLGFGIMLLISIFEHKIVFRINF

How the values were obtained:
[1] = molecular target: human LIV-1 (human) (UniProt Q13433); test: FACS, HEK293/H_LIV-1 cells
[2] = molecular target: human LIV-1 (human) (UniProt Q13433); test: FACS, human LIV-1 expressing cells
[3] = molecular target: human LIV-1 (human) (UniProt Q13433); test: FACS, HEK293/H_LIV-1 and BT20/H_LIV-1 cells

binding [1]: binds | binding [2]: binds | binding [3]: binds
B1: 290F10G10.p1.Z2 (antibody, V domains shown)
VH: EVQLVQSGAEVKKPGASVKVSCKASGYTFTSYWIHWVRQAPGQGLEWMGTIYPGDADTRSTQKFKDRVTMTADTSTSTVYMELSSLRSEDTAVYYCARSLIHDDYDKYYFDYWGQGTTVTVSS
VL: DIQMTQSPSSLSASVGDRVTITCKARQDINKYIAWYQQKPGKAPKLLIHYTSILQPGIPSRFSGSGSGRDYTFTISSLQPEDIATYYCLQYDYFFTFGGGTKVEIK
